According to the supplement of paper PMC10849652:
The list shows a part of the results.

Chains of the proteins cited; added tags and fusions are not shown. Lines headed by an entry give the natural chain unless they say otherwise; changes in a name come on top.
UniProt Q96PY6: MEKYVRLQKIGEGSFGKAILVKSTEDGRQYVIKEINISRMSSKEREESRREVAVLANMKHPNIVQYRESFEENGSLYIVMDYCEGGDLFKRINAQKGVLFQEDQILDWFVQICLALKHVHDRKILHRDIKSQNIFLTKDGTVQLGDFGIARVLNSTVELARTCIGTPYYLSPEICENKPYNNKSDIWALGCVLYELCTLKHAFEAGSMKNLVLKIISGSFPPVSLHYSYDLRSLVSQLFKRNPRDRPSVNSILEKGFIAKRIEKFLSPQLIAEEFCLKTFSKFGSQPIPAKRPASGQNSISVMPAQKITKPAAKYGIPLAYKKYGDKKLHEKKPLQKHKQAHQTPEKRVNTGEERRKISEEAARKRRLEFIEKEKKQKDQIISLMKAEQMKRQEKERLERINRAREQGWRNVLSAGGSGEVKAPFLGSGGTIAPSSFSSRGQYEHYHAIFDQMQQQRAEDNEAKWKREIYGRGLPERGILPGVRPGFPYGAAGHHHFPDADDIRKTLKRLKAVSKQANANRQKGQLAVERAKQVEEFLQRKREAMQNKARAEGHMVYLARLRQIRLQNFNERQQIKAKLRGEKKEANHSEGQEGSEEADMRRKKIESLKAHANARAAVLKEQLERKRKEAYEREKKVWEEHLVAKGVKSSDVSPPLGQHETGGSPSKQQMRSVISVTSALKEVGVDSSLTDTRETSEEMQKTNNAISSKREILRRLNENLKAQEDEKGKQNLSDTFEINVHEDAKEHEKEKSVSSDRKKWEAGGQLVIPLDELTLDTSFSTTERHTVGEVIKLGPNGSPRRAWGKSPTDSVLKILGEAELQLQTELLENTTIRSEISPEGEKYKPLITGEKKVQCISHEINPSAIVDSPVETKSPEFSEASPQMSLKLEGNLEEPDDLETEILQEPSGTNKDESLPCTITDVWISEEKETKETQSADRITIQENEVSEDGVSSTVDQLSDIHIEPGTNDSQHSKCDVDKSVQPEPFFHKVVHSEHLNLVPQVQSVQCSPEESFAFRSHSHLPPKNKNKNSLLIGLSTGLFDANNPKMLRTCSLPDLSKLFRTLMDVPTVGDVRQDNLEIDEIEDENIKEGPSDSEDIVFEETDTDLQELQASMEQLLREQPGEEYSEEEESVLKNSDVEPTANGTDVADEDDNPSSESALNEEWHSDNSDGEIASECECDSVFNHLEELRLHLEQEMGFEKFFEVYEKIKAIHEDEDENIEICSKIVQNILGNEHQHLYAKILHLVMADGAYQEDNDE
NA, A0A494C071, UniProt A0A494C071, whole entry, looked up: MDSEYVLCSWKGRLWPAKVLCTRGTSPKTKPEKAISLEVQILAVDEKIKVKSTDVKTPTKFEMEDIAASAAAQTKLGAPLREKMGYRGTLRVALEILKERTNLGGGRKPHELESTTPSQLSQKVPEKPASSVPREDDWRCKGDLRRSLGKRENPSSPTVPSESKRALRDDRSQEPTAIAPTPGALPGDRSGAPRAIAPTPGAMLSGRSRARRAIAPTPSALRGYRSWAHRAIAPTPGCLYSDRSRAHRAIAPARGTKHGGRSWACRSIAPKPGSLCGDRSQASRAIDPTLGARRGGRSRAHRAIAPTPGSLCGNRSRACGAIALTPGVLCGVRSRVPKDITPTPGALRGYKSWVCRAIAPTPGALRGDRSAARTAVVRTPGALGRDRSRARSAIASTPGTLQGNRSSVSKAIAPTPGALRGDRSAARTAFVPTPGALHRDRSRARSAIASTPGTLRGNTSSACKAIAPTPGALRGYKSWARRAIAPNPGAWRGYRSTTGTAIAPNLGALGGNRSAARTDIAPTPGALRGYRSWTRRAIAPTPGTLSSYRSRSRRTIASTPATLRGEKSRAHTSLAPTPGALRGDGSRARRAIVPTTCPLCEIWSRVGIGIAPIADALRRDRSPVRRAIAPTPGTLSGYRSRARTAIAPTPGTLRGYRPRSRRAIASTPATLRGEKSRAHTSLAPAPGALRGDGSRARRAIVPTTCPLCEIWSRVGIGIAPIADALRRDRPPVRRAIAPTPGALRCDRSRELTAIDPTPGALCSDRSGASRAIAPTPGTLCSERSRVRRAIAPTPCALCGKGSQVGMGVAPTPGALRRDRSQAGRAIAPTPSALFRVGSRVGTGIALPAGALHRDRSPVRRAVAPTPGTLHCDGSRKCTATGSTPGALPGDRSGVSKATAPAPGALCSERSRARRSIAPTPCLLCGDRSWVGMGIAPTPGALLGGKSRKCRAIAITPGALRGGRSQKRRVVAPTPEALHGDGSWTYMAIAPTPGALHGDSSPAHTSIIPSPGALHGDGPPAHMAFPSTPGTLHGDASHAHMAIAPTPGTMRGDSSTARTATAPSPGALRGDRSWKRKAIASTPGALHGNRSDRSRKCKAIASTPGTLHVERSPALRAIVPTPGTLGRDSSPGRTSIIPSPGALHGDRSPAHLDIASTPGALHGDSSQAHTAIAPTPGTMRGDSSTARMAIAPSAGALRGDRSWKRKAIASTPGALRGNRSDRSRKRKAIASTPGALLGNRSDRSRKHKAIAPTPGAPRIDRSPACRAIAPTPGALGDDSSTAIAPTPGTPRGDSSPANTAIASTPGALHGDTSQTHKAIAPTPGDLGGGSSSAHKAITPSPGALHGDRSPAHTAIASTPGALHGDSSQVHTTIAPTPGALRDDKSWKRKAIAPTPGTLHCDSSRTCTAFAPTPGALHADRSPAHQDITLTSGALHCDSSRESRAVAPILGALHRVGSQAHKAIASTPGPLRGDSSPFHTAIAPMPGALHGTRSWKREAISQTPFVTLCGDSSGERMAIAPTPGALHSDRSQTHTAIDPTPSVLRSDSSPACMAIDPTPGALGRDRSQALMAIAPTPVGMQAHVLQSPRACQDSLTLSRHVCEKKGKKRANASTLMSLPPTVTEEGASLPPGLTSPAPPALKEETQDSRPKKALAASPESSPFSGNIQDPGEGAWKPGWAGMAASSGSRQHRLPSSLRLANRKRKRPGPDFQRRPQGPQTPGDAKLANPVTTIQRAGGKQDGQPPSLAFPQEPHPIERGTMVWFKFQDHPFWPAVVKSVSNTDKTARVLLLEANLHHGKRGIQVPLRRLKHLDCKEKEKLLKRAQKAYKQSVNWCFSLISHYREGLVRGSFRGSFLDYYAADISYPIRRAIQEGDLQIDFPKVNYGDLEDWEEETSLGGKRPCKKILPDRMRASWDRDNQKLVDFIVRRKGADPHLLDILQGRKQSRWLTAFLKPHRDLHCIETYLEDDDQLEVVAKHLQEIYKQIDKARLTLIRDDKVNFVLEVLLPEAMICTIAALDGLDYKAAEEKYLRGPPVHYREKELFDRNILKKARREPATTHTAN
UniProt Q15788: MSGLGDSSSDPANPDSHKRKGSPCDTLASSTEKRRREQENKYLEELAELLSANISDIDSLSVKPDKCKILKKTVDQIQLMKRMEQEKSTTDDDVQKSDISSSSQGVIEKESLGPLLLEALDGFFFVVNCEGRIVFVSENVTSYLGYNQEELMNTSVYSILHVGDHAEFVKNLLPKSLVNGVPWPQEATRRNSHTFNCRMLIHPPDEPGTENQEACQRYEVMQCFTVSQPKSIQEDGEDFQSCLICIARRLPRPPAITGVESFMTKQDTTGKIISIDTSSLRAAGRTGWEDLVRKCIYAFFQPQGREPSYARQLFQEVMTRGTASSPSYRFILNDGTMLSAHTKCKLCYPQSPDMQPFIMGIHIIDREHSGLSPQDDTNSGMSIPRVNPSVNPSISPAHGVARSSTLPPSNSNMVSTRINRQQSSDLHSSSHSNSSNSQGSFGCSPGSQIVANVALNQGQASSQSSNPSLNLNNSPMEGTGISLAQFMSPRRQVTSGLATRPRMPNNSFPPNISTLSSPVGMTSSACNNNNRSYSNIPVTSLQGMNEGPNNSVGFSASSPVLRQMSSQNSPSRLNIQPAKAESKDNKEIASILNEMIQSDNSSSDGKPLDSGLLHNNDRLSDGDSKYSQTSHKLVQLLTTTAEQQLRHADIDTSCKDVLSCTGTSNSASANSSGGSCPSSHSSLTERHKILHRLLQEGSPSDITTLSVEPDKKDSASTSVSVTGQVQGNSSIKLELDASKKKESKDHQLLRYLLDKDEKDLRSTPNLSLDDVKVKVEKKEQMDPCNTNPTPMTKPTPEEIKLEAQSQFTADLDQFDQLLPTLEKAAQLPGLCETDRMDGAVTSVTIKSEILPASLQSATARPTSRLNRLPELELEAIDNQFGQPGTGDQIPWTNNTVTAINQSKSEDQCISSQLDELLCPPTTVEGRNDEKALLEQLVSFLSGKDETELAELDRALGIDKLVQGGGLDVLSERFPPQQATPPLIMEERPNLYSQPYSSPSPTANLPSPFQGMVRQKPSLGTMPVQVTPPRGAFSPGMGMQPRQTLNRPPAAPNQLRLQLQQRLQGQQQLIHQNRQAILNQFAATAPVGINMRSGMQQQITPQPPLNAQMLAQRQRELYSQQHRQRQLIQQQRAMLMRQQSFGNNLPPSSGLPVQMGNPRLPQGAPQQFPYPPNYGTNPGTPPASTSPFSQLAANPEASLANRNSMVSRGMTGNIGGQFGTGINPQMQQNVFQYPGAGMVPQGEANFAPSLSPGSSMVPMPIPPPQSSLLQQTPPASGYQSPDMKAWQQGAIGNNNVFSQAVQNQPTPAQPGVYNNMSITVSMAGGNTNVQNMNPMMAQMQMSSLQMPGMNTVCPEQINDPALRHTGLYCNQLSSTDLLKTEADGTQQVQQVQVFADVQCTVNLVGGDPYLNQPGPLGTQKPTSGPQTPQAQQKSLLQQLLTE
NBDY, A0A0U1RRE5, UniProt A0A0U1RRE5, whole entry, looked up: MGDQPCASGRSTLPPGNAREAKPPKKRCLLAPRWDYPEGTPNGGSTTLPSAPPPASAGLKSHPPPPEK
UniProt Q9BQ15: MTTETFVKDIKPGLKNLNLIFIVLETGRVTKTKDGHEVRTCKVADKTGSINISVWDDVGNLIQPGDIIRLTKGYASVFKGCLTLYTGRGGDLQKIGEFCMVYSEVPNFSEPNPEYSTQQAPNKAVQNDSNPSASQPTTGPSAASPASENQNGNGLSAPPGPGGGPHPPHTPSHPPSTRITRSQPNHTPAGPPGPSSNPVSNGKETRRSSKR
UniProt Q9HCH0: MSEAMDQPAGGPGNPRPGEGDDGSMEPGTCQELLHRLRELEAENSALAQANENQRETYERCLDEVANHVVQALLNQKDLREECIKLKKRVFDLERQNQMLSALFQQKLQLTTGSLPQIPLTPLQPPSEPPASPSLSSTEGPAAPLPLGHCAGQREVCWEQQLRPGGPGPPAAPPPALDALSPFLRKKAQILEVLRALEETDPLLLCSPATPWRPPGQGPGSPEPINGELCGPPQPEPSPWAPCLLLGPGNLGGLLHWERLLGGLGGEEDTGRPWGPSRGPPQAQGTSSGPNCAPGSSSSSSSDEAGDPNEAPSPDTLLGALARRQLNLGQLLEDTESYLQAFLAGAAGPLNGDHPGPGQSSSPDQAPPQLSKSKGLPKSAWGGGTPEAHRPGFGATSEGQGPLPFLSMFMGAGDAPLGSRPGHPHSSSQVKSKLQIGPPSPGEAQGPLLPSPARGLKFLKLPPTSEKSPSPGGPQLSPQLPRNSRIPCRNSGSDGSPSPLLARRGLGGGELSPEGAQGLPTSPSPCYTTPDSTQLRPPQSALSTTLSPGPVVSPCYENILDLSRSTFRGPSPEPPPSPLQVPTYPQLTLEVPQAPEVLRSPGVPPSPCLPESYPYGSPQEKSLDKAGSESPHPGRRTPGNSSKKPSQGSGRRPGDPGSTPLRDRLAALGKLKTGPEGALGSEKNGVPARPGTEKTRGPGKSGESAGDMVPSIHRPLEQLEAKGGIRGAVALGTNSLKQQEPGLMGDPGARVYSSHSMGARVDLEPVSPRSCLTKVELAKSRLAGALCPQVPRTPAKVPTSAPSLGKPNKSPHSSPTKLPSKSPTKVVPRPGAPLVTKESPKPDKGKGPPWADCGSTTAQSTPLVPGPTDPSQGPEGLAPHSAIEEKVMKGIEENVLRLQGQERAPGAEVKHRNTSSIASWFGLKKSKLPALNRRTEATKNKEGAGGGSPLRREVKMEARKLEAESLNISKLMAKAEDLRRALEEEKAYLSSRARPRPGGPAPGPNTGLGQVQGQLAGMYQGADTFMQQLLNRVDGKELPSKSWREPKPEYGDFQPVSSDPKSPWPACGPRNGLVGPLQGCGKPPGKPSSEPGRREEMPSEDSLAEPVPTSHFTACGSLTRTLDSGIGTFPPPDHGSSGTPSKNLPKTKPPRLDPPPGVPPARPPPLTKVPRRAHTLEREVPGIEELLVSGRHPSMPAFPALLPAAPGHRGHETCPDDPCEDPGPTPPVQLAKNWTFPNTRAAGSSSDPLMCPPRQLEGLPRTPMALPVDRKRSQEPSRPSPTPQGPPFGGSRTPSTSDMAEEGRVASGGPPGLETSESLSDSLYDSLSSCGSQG

compound: CN1CCN(CCOc2cc(OC3CCOCC3)c3c(Nc4c(Cl)ccc5c4OCO5)ncnc3c2)CC1 [saracatinib]; assay: log2 fold change, soluble protein after heating vs DMSO (PISA); higher = thermal stabilisation; K562 cells, 10 uM, 30 min; active = over 0.2 and 3.5 SD of the protein, either way, in both replicates (recomputed)
How it was run: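 Values are thermal stability changes relative to control samples and are taken from duplicates. They are stated as log2 fold changes. Before quantification by TMTpro 16plex LC-MS/MS with equalised channel sums, K562 cells at 2×10^6 cells/mL were treated with 10 μM compound for 30 min, heated in aliquots for 3 min across 48°C-58°C, pooled, extracted in PBS with 0.5% NP-40 at 4°C, and centrifuged at 21,000xg for 90 min to give the soluble supernatant.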

Target | log2 fold change
NA, A0A1W2PSA9 | inactive: -0.046
NDEL1 isoform 2 (UniProt Q9GZM8) | inactive: 0.051
NEK1 isoform 3 (UniProt Q96PY6) | inactive: -0.497
NCCRP1 (UniProt Q6ZVX7) | inactive: -0.424
NAP1L1 (UniProt B7Z9C2) | inactive: -0.168
NA, A0A494C071 | inactive: 0.033
NCOA1 (UniProt Q15788) | inactive: 0.11
MYOF (UniProt Q9NZM1) | inactive: -0.097
NBDY, A0A0U1RRE5 | inactive: -0.03
NABP2 (UniProt Q9BQ15) | inactive: 0.006
NEB isoform 3 (UniProt P20929) | inactive: 0.233
NCKAP5L (UniProt Q9HCH0) | inactive: 0.037

Copied from the list:
NCKAP5L (UniProt Q9HCH0) – log2 fold change: inactive: 0.037
NCOA1 (UniProt Q15788) – log2 fold change: inactive: 0.11
